{"source": "paper PMC8661717", "target": "His6-MBP-tagged SARS-CoV-2 nonstructural protein 1 (nsp1), full length (SARS-CoV-2) (UniProt P0DTD1)", "test": "pull-down; both purified", "note": "These are yes or no findings as the source states them, for the method shown."}
{"binder": "Primase heterodimer Pri1–Pri2 (complex, UniProt P49642 1-420; P49643 1-509) chain 1: METFDPTELPELLKLYYRRLFPYSQYYRWLNYGGVIKNYFQHREFSFTLKDDIYIRYQSFNNQSDLEKEMQKMNPYKIDIGAVYSHRPNQHNTVKLGAFQAQEKELVFDIDMTDYDDVRRCCSSADICPKCWTLMTMAIRIIDRALKEDFGFKHRLWVYSGRRGVHCWVCDESVRKLSSAVRSGIVEYLSLVKGGQDVKKKVHLSEKIHPFIRKSINIIKKYFEEYALVNQDILENKESWDKILALVPETIHDELQQSFQKSHNSLQRWEHLKKVASRYQNNIKNDKYGPWLEWEIMLQYCFPRLDINVSKGINHLLKSPFSVHPKTGRISVPIDLQKVDQFDPFTVPTISFICRELDAISTNEEEKEENEAESDVKHRTRDYKKTSLAPYVKVFEHFLENLDKSRKGELLKKSDLQKDF chain 2: MEFSGRKWRKLRLAGDQRNASYPHCLQFYLQPPSENISLIEFENLAIDRVKLLKSVENLGVSYVKGTEQYQSKLESELRKLKFSYRENLEDEYEPRRRDHISHFILRLAYCQSEELRRWFIQQEMDLLRFRFSILPKDKIQDFLKDSQLQFEAISDEEKTLREQEIVASSPSLSGLKLGFESIYKIPFADALDLFRGRKVYLEDGFAYVPLKDIVAIILNEFRAKLSKALALTARSLPAVQSDERLQPLLNHLSHSYTGQDYSTQGNVGKISLDQIDLLSTKSFPPCMRQLHKALRENHHLRHGGRMQYGLFLKGIGLTLEQALQFWKQEFIKGKMDPDKFDKGYSYNIRHSFGKEGKRTDYTPFSCLKIILSNPPSQGDYHGCPFRHSDPELLKQKLQSYKISPGGISQILDLVKGTHYQVACQKYFEMIHNVDDCGFSLNHPNQFFCESQRILNGGKDIKKEPIQPETPQPKPSVQKTKDASSALASLNSSLEMDMEGLEDYFSEDS", "values": [{"measurement": "binding", "result": "no binding"}]}
